Measured values reported in patent US20080050380A1.
Results are given in words; binding and its absence hold for the method and conditions named. Some binding calls cover weakened binding; strength is not graded here.

Sequences of proteins named here, by UniProt entry; tags and fusion partners are left off. A change or cut given only in a name is not applied to a line headed by its entry. Residues count along the entry.
UniProt P08121, residues 155-1219: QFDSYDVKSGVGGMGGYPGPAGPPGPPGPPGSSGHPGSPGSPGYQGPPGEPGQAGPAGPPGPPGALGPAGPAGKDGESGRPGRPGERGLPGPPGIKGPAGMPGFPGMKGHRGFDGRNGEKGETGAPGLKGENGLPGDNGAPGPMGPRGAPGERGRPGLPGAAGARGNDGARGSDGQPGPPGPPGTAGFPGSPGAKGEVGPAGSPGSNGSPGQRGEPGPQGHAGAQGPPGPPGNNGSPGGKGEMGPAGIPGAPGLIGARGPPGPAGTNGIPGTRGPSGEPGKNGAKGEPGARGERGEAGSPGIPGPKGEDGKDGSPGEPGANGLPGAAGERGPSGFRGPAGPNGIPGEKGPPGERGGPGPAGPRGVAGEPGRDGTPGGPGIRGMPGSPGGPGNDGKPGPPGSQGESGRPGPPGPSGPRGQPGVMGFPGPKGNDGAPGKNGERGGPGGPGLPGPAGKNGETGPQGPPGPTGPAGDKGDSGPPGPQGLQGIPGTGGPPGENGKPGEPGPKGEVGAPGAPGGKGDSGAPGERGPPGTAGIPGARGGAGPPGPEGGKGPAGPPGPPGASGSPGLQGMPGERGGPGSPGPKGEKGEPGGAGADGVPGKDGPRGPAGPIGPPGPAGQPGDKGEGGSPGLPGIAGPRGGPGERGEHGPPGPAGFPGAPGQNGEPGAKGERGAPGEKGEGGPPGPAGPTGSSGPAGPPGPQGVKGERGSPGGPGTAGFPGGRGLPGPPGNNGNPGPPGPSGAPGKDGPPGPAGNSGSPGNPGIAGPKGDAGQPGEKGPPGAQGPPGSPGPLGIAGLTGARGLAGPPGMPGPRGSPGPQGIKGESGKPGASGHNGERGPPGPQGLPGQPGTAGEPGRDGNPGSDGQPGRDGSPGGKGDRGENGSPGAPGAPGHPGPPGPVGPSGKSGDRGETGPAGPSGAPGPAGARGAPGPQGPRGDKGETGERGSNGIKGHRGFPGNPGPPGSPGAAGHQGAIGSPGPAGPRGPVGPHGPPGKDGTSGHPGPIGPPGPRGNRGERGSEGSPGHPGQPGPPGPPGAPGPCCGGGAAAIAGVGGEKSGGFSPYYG
UniProt Q9HCN6: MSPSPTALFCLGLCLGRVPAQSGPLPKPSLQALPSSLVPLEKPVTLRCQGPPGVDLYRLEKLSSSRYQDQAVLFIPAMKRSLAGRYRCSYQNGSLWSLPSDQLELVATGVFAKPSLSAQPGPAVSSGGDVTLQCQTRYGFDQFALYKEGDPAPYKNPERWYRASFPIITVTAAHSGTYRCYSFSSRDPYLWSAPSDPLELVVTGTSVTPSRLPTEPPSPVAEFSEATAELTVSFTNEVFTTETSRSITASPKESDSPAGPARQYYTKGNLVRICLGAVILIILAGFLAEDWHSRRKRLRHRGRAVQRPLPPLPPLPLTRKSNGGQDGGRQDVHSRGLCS

Legend:
[1] = biological target: mouse collagen on descending aorta sections (co-localises with collagen type III) (mouse) (UniProt P08121); experiment: immunofluorescence on mouse descending aorta sections
[2] = biological target: mouse collagen on descending aorta sections (co-localises with collagen type III) (mouse) (UniProt P08121); experiment: immunofluorescence on mouse descending aorta sections, 0.1 µg/ml GPVI-Fc
[3] = biological target: mouse collagen on descending aorta sections (co-localises with collagen type III) (mouse) (UniProt P08121); experiment: immunofluorescence on mouse aorta sections

Measured: binding

soluble human GPVI-Fc (the extracellular domain of GPVI fused to Fc) (from UniProt Q9HCN6 21-269) (Fc fusion)
binds: all assays above
